Reference: article PMC3223156, “Designer Lipid-Like Peptides: A Class of Detergents for Studying Functional Olfactory Receptors Using Commercial Cell-Free Systems” (PLoS ONE, 2011)
Results are given in words; binding and its absence hold for the method and conditions named. Some entries that bind do so weakly or less than the wild type.

Biological target: olfactory receptor mOR103-15 (UniProt Q9QWU6)
Assay: SDS-PAGE (silver stain and western blot); immunoaffinity-purified receptors in PBS + 0.2% FC-14; samples kept at room temperature (not boiled) before loading on 10% Bis-Tris SDS-PAGE gels; monomeric and dimeric bands seen; both purified

binding: binds
B1: olfactory receptor mOR103-15 (receptor, UniProt Q9QWU6 1-327)
chain: MERRNHTGRVSEFVLLGFPAPAPLRALLFFLSLLAYVLVLTENILIITAIRNHPTLHKPMYFFLANMSFLEIWYVTVTIPKMLAGFIGSEENHGQLISFEACMTQLYFFLGLGCTECVLLAVMAYDRYVAICHPLHYPVIVSSRLCVQMAAGSWAGGFGISMVKVFLISRLSYCGPNTINHFFCDVSPLLNLSCTDMSTAELTDFILAIFILLGPLSVTGASYMAITGAVMRIPSAAGRHKAFSTCASHLTVVIIFYAASIFIYARPKALSAFDTNKLVSVLYAVIVPLLNPIIYCLRNQEVKKALRRTLHLAQGQDANTKKSSRDG
